The results in this text go back to the supplement of paper PMC10849652.

Amino acid sequences for entries named in this document (tags omitted). A change or cut given only in a name is not applied to a line headed by its entry.
UniProt Q9UKV5, whole entry, looked up: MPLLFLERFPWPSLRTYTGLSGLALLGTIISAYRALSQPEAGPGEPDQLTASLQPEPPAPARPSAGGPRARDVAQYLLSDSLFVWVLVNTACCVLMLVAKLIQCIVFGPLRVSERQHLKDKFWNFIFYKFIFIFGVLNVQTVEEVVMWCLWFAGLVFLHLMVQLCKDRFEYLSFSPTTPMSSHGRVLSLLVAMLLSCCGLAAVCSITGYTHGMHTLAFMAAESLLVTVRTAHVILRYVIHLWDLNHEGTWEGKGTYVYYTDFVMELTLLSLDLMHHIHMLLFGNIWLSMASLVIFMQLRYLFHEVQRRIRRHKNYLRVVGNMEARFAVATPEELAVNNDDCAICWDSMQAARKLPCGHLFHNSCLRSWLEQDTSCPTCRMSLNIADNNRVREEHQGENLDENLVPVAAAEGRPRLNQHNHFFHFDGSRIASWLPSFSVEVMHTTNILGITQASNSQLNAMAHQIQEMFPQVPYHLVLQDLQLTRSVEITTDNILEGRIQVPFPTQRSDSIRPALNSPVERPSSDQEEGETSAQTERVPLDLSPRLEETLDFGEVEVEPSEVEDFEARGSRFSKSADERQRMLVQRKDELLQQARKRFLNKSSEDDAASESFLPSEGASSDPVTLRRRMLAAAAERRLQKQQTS
UniProt P51649: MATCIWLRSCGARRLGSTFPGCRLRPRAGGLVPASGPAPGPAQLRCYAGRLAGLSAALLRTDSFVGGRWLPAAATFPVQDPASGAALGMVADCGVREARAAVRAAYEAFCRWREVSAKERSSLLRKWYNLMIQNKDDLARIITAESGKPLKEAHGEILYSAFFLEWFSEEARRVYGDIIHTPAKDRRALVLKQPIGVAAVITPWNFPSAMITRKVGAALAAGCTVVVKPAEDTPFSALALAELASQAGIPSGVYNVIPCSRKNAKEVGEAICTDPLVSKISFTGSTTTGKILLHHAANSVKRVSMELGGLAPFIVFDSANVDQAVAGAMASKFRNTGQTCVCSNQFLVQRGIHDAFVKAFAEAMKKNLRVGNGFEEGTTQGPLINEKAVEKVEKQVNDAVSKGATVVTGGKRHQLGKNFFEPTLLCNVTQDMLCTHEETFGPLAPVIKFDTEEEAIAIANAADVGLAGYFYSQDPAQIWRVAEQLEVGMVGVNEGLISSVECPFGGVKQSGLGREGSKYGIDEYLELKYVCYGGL
UniProt O00170: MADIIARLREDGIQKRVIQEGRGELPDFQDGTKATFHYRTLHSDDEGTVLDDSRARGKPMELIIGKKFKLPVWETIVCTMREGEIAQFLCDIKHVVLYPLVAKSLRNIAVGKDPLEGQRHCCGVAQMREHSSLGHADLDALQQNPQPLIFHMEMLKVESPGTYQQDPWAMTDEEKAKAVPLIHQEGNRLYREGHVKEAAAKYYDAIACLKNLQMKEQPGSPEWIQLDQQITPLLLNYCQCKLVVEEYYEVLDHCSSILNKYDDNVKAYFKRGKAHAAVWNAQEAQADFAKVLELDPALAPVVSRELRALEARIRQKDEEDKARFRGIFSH
UniProt Q99943: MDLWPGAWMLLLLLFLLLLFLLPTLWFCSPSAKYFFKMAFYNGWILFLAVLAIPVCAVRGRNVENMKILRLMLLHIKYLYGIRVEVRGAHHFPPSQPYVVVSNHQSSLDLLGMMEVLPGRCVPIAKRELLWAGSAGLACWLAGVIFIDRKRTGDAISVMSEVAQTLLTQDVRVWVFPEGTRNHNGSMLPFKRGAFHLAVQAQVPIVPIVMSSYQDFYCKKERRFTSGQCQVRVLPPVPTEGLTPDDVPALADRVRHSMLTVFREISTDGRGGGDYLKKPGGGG
UniProt Q53H12: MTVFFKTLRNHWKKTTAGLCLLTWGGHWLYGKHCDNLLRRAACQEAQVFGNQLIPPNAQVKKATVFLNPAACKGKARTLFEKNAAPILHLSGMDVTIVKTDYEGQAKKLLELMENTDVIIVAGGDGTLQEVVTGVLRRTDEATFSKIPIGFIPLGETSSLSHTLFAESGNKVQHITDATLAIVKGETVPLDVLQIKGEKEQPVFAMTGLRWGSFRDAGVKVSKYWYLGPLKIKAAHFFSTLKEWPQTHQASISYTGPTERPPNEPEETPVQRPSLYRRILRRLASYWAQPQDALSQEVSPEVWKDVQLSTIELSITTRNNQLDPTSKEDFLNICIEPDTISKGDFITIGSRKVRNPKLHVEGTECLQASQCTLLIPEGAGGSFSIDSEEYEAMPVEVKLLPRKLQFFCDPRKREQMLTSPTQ
UniProt Q6NS38: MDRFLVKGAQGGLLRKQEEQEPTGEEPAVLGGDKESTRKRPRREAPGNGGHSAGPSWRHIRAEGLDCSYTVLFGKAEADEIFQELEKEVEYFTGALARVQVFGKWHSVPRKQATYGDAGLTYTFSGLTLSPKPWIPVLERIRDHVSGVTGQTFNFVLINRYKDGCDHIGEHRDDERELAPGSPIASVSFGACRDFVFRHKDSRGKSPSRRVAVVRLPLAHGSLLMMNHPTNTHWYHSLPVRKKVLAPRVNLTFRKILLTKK
UniProt Q5I7T1: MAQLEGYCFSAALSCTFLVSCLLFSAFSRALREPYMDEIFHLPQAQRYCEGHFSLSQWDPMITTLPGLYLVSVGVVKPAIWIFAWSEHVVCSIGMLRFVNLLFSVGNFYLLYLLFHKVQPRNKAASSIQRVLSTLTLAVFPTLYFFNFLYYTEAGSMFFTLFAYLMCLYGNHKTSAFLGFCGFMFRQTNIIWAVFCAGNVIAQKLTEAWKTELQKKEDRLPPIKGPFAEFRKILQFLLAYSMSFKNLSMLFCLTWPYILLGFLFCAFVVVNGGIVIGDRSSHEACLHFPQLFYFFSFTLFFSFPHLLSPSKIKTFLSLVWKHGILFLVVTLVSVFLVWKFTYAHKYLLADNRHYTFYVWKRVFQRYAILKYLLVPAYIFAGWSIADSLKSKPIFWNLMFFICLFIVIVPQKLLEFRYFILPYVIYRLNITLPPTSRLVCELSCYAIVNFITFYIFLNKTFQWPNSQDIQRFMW
UniProt P31751: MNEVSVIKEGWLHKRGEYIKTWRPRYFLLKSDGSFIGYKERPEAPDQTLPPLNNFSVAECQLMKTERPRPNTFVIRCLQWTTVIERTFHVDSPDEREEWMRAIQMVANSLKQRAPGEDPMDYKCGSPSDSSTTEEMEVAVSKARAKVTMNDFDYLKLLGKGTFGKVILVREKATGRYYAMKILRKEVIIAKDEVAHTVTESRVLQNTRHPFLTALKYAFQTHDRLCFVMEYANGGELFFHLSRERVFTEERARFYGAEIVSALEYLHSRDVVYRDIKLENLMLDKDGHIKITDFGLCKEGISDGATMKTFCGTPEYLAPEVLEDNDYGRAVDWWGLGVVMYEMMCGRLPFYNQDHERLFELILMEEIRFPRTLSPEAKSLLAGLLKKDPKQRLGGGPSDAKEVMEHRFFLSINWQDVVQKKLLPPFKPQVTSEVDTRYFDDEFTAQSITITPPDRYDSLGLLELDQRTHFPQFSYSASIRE
UniProt Q2TAA5: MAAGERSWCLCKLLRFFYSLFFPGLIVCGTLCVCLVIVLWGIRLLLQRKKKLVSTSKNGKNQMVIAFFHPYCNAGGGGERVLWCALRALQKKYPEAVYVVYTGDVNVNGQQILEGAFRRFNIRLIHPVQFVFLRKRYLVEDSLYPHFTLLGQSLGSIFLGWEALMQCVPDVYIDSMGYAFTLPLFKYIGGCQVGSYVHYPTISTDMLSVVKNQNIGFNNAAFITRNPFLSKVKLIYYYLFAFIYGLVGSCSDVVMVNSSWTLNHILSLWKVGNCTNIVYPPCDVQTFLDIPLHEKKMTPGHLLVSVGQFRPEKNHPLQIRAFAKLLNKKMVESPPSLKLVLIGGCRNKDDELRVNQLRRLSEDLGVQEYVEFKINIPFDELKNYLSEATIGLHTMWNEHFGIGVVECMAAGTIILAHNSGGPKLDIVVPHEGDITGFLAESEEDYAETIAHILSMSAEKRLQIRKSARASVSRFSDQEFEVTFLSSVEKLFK
UniProt Q9NXW9: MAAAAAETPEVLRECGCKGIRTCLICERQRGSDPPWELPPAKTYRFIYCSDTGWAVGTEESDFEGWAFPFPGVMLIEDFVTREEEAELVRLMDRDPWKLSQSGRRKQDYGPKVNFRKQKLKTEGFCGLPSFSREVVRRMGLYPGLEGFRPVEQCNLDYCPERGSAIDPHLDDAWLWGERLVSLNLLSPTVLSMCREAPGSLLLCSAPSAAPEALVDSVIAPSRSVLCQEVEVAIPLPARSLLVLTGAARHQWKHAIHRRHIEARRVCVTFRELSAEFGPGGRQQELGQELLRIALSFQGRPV
UniProt Q92667: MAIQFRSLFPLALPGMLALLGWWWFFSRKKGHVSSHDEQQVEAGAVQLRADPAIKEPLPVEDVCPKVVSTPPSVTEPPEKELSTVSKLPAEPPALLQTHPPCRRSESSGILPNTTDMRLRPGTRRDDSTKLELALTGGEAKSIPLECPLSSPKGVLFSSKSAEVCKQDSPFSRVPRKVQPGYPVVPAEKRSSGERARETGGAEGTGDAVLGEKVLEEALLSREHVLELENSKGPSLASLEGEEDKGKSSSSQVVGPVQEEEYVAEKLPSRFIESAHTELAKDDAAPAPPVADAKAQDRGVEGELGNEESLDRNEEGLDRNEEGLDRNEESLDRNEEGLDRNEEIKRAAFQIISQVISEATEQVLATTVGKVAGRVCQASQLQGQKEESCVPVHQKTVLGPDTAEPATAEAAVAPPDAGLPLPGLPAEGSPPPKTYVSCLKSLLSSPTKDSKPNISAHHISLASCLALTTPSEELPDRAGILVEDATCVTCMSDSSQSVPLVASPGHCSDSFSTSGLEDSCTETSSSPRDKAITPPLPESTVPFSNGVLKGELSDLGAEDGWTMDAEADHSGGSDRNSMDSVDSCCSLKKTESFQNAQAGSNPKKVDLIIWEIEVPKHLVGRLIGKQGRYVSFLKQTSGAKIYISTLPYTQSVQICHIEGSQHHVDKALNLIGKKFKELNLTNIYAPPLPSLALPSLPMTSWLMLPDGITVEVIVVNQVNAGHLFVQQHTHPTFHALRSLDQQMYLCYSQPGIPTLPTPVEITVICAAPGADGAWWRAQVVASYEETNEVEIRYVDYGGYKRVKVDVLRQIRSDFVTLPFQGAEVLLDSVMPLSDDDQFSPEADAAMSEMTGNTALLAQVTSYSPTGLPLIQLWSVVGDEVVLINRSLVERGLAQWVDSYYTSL
UniProt Q8N142: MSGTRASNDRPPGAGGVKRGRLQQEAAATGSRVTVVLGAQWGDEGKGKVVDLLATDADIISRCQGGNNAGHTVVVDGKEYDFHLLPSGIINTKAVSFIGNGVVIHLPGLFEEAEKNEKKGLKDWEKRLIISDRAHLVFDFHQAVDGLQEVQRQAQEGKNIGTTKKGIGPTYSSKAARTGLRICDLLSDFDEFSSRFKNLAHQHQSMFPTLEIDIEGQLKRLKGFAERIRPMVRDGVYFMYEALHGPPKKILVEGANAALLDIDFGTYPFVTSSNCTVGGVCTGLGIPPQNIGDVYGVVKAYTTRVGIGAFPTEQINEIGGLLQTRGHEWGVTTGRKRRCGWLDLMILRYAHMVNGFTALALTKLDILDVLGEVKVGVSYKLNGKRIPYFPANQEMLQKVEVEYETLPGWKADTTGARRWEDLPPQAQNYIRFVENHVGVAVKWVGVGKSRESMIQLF
UniProt P30837: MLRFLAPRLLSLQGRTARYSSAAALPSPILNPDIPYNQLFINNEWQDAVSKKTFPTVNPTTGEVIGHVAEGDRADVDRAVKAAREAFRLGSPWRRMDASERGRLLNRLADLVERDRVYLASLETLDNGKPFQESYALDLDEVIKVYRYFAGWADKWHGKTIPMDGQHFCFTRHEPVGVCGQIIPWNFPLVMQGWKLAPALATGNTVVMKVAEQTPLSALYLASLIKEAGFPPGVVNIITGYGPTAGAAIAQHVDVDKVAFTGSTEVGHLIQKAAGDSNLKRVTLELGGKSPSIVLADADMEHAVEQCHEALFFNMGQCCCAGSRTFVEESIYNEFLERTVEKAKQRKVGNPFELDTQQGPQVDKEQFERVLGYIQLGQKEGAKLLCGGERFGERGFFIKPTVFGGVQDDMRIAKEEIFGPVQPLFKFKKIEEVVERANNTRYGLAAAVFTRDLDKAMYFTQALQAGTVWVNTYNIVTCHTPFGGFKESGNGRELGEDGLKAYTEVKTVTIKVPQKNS
UniProt P51857: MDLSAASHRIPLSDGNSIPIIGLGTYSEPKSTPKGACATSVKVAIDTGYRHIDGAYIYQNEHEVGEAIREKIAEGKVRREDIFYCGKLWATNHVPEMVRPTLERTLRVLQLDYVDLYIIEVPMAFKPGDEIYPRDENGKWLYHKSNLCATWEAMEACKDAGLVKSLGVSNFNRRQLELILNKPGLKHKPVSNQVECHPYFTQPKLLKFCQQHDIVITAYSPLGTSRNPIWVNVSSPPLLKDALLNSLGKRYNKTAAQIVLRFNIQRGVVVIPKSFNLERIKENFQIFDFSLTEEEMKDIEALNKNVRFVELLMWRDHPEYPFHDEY

The list shows a part of the results.

Compound in this test: Cc1sc2c(c1C)C(c1ccc(Cl)cc1)=N[C@@H](CC(=O)OC(C)(C)C)c1nnc(C)n1-2
The experiment in a line: log2 fold change, soluble protein after heating vs DMSO (PISA); higher = thermal stabilisation; K562 cells, 10 uM, 30 min; active = over 0.2 and 3.5 SD of the protein, either way, in both replicates (recomputed). Put shortly: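 Aliquots of K562 cells (2×10^6 cells/mL) treated with 10 μM compound for 30 min were heated for 3 min over 48°C-58°C. After pooling and extraction in PBS with 0.5% NP-40 at 4°C, soluble protein from a 21,000xg, 90 min spin was quantified by TMTpro 16plex LC-MS/MS with channel sums equalised. Thermal stability is expressed against control samples, from duplicates, as a log2 fold change.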
AGFG1 isoform 4 (UniProt P52594): the log2 fold change was inactive: -0.02.

Consider AGO3 (UniProt Q9H9G7), for which the log2 fold change is inactive: 0.166. For AIDA (UniProt Q96BJ3) the value was inactive: 0.03; for AKAP8L (UniProt Q9ULX6), inactive: -0.047. As for AHCY (UniProt P23526), the figure is inactive: -0.01; as for AMFR (UniProt Q9UKV5), inactive: 0.024.

In the case of ALDH5A1 isoform 2 (UniProt P51649), the log2 fold change is inactive: -0.019. As for AHNAK (UniProt Q09666), the figure is inactive: 0.017; as for AIP (UniProt O00170), inactive: -0.004; as for AKT1 (UniProt P31749), inactive: 0.042.

Consider AKR1B1 (UniProt P15121), for which the log2 fold change was inactive: 0.

In the case of AGPAT1 (UniProt Q99943), the log2 fold change was inactive: -0.032.

For the target AMBRA1 isoform 5 (UniProt Q9C0C7), the log2 fold change was inactive: 0.183. For the target ADD3 (UniProt Q9UEY8), the log2 fold change is inactive: -0.002.

Regarding AHCYL2 (UniProt Q96HN2), the log2 fold change is inactive: -0.03. For ALG5 (UniProt Q9Y673) the value was inactive: -0.06; for ALDH9A1 (UniProt P49189), inactive: 0.098.

ALG8 (UniProt Q9BVK2): the log2 fold change is inactive: -0.124. As for ALDH4A1 (UniProt P30038), the figure is inactive: -0.012.

Regarding AGO4 (UniProt Q9HCK5), the log2 fold change is inactive: 0.006. As for AMPD2 (UniProt Q01433), the figure is inactive: 0.006. As for ALDH1A1 (UniProt P00352), the figure is inactive: -0.05; as for AGK (UniProt Q53H12), inactive: -0.041.

Consider ALKBH2 (UniProt Q6NS38), for which the log2 fold change is inactive: 0.063. For the target ALG10B (UniProt Q5I7T1), the log2 fold change is inactive: -0.199. For AKT2 (UniProt P31751) the value was inactive: 0.009.

With ADD2 (UniProt P35612), the log2 fold change is inactive: -0.024. For AKAP12 (UniProt Q02952) the value was inactive: 0.028; for AKR1C2 (UniProt P52895), inactive: 0.057; for ALG11 (UniProt Q2TAA5), inactive: -0.051. For AIFM1 (UniProt O95831) the value was inactive: -0.011; for ALKBH4 (UniProt Q9NXW9), inactive: 0.079; for ALDH1A2 (UniProt O94788), inactive: -0.042. For AKAP1 (UniProt Q92667) the value was inactive: 0.021; for ADSS1 (UniProt Q8N142), inactive: 0.057.

For AK3 (UniProt Q9UIJ7), the log2 fold change is inactive: -0.02. For ALDH1B1 (UniProt P30837) the value was inactive: -0.047. Take AKR1D1 (UniProt P51857): the log2 fold change is inactive: 0.127.
